# Experimental data as given in the supplement of paper PMC12823440, “Inhibitors supercharge kinase turnover through native proteolytic circuits” (Nature, 2025).
# By UniProt entry, the sequences of proteins in these tests, tags left out. Where a name states a change or a piece, a line headed by the entry shows the natural chain unless it says otherwise.
# UniProt P36888, whole entry: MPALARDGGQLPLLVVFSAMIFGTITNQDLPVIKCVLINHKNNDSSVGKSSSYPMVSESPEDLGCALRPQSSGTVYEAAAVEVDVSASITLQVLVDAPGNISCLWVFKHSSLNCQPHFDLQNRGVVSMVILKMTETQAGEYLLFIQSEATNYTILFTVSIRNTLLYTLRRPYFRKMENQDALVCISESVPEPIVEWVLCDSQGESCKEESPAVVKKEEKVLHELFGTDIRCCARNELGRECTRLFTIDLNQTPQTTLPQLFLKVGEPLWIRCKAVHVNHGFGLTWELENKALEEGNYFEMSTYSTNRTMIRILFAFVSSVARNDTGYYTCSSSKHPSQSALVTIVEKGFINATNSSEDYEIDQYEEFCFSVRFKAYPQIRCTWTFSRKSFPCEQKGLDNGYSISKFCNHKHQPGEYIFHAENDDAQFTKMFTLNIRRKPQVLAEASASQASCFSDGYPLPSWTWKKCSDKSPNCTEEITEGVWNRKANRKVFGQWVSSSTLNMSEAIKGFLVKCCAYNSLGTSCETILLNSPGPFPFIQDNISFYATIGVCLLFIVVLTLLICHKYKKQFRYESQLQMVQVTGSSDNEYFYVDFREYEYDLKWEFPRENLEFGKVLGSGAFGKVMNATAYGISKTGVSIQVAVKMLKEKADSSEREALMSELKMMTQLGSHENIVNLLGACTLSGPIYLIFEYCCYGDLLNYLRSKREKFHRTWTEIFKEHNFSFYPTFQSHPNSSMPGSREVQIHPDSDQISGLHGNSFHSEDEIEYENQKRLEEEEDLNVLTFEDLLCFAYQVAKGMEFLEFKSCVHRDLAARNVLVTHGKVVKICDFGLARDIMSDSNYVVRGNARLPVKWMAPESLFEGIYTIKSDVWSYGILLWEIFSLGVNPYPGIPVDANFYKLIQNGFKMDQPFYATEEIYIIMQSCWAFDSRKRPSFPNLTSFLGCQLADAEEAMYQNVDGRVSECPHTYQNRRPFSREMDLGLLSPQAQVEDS
# UniProt P06241, whole entry, looked up: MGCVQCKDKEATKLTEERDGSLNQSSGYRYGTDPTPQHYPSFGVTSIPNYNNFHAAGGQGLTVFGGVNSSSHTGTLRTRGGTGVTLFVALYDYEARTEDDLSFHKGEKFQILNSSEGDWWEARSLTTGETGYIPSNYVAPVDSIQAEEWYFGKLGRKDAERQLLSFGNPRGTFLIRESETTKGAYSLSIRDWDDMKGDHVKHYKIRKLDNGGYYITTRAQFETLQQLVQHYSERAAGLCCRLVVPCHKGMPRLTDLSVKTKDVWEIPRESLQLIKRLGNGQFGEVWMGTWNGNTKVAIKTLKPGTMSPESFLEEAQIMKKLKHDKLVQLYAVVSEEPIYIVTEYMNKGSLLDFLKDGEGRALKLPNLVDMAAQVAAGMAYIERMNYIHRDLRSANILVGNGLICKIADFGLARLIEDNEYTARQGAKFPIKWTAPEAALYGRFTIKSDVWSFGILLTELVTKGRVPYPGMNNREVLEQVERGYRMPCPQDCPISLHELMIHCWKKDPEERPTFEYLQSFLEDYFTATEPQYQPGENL
# UniProt P49840: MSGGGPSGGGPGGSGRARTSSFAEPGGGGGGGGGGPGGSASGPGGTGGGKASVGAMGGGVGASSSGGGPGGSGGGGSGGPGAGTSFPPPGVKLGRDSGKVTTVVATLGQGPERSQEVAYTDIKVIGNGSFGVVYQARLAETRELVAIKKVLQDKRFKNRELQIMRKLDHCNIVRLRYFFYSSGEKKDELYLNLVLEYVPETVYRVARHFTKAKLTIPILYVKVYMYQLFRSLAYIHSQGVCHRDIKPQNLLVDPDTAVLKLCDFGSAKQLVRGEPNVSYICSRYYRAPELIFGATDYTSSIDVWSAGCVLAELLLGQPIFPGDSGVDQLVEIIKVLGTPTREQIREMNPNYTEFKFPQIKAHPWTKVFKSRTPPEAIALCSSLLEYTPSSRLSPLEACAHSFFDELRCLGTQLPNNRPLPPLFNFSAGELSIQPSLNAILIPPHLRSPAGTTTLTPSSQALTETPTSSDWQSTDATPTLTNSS
# UniProt P14616: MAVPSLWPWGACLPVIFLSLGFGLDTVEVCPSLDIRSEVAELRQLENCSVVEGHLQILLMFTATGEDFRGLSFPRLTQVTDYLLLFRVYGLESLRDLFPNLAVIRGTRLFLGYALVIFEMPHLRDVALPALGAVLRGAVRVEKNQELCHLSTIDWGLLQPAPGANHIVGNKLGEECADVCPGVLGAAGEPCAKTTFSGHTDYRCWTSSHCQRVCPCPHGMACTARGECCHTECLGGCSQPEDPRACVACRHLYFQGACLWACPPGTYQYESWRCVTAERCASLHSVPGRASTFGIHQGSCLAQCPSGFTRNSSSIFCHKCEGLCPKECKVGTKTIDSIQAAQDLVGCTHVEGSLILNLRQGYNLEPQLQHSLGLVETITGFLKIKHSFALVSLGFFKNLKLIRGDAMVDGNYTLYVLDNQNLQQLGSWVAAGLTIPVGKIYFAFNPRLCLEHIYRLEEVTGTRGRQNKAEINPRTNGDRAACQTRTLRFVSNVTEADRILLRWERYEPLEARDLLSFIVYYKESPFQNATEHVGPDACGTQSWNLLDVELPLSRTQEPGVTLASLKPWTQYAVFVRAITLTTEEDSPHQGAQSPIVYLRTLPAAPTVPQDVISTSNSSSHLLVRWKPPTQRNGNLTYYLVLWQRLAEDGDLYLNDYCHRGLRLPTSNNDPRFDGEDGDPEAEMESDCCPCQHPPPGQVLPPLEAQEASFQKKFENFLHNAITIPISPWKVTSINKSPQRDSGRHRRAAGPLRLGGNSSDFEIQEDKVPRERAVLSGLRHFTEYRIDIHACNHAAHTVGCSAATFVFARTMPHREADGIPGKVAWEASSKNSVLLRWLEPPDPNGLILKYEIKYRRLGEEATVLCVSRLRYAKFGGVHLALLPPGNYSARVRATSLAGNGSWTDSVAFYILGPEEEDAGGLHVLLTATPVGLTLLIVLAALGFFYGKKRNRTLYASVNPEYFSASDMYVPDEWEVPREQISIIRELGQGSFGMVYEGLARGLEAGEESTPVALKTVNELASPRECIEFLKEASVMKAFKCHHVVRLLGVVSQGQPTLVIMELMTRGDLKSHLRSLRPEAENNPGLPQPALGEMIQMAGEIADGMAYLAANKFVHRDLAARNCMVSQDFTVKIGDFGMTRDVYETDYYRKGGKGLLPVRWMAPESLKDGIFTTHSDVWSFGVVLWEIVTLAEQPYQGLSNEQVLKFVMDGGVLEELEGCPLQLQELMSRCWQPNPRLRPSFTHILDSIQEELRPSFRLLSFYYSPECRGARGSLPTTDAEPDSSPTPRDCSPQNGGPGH
# UniProt Q9Y616: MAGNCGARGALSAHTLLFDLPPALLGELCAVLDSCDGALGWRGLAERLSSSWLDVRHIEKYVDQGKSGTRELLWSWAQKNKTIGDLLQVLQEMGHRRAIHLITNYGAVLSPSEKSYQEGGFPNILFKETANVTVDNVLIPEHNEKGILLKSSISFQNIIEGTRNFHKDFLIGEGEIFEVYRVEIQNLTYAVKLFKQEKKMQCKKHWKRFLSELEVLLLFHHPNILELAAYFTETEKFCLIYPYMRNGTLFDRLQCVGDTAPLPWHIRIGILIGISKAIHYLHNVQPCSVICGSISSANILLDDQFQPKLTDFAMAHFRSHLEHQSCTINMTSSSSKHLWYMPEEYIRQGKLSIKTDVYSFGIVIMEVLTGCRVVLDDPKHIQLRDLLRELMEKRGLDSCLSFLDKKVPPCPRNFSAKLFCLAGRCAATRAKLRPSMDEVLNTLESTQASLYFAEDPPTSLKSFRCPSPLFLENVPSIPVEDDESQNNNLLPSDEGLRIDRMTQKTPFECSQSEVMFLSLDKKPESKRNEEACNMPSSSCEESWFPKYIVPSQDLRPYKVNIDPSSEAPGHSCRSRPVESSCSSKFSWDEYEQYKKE
# UniProt P06239: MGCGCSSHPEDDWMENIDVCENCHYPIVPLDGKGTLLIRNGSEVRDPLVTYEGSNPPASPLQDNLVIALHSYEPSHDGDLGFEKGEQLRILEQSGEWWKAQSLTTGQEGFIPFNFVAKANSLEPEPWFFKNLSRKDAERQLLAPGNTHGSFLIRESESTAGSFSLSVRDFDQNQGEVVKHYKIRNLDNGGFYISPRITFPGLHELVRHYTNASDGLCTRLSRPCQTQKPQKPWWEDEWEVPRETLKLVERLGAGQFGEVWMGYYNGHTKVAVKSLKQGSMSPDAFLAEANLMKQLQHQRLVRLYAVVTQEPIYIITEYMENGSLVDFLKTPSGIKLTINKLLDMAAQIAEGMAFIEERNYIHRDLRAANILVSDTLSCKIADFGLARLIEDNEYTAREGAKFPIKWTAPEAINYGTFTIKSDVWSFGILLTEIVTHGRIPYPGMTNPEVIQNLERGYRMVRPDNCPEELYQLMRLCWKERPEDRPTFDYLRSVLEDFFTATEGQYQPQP
# UniProt P53667: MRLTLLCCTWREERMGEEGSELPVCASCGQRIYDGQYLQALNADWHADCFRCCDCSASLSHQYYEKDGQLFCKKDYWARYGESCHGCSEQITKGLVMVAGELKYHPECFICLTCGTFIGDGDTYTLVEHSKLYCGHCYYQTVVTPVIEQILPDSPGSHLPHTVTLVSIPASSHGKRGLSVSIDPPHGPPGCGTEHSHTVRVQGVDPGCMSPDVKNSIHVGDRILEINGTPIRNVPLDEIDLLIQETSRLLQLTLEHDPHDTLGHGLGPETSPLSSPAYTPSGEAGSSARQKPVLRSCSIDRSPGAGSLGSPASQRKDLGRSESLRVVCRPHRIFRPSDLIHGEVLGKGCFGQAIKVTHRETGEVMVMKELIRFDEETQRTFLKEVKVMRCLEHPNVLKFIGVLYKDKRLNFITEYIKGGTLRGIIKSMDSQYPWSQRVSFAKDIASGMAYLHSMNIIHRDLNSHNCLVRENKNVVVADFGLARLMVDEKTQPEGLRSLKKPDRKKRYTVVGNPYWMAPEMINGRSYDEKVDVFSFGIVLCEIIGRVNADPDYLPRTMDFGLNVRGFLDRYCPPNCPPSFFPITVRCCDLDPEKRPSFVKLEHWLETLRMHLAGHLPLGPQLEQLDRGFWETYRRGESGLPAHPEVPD
# UniProt P53671: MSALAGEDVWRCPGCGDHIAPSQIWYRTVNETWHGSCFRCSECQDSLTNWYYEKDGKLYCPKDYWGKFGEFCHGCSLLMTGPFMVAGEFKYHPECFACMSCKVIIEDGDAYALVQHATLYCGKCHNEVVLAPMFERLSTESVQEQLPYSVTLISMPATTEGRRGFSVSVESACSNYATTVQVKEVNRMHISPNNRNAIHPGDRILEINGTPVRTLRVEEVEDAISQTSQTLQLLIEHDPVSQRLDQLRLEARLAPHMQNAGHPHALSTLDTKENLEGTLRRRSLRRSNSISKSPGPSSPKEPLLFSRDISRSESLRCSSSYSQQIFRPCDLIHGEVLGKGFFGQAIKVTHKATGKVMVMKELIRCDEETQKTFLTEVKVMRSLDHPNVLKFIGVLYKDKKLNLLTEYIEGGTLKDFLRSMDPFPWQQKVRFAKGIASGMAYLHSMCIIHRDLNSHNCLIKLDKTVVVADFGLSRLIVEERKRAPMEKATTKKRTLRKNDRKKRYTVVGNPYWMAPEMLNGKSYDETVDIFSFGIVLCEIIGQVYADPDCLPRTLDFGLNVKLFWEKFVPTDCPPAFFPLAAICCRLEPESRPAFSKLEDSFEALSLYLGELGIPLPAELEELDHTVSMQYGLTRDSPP
# The other results are listed elsewhere or left out. Hit calls seldom repeat between salt and free forms of one compound.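 Kinases, fused to nanoluciferase, were expressed in K562 cells; luminescence was measured every 4 h from 2 to 18 h as percent of control (DMSO = 100%, positive control = 0%). A time point is decreased if signal falls significantly (2 sigma). Hits were called by the authors by a rule that is not shown; the count of time points alone does not decide it.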
# Columns and labels:
# Assay in all cases: number of time points (of 5) at which kinase-Nluc abundance scored as decreased, DMSO-normalised (count); higher = more persistent destabilization
# Settings in all cases: K562; 2-18 h
# [1] = target: FLT3 (UniProt P36888)
# [2] = target: FYN (UniProt P06241)
# [3] = target: GSK3A (UniProt P49840)
# [4] = target: HER2 (UniProt P04626)
# [5] = target: INSRR (UniProt P14616)
# [6] = target: IRAK3 (UniProt Q9Y616)
# [7] = target: JAK1 (UniProt P23458)
# [8] = target: LCK (UniProt P06239)
# [9] = target: LIMK1 (UniProt P53667)
# [10] = target: LIMK2 (UniProt P53671)
SMILES,number of time points [1],number of time points [2],number of time points [3],number of time points [4],number of time points [5],number of time points [6],number of time points [7],number of time points [8],number of time points [9],number of time points [10]
O=C(O)CCC(=O)Nc1ccc(Br)cn1 [Bikinin] (10 µM),0,0,0,0,0,0,0,0,0,0
C[C@@]1(c2ncncc2F)NC(=O)c2cc(-c3cn[nH]c3)ccc21 (10 µM),0,0,0,0,0,0,0,0,0,0
COc1ccccc1-c1cc(Nc2cccc(CS(N)(=O)=O)c2)ncn1 (10 µM),3,0,0,0,4,3,3,0,0,0
CC(C)(O)CNc1ncc(-c2ccnc(Nc3ccnc(Cl)c3)n2)c(CC2CC2)n1 (2.5 µM),0,0,0,0,0,0,0,0,0,0
COc1ncc(Cl)cc1S(=O)(=O)Nc1ccc(F)c(C#Cc2cnc(N)nc2)c1F (2.5 µM),0,0,0,3,0,0,0,0,0,0
CN1C(=O)N[C@H](Cc2c[nH]c3c(Cl)cccc23)C1=O [Necrostatin 2] (10 µM),0,0,0,0,0,0,0,0,0,0
CCS(=O)(=O)Nc1ccc2[nH]c(O)c(C(=Nc3ccc(CN4CCCCC4)cc3)c3ccccc3)c2c1 [Hesperadin] (2.5 µM),3,3,0,1,3,3,3,0,4,1
NC(=O)c1nnc(N[C@@H]2CCCC[C@@H]2N)nc1Nc1cccc2cc[nH]c12 (10 µM),0,0,0,0,1,0,0,0,2,0
CN(C)CCSSCCNC(=O)C1CCN(C(=O)CSc2ccc(Cl)cc2)CC1 (10 µM),0,0,0,0,0,0,0,0,0,0
COc1cc(OC2CCN(C)CC2)ccc1Nc1ncc2c(n1)n(C1CCCC1)c(=O)n2C (10 µM),0,0,0,0,0,0,0,0,0,0
CN(C)C(=O)Cn1cc(-c2ccc(-c3cncc4ccccc34)cc2)cn1 (10 µM),0,0,0,0,0,0,0,0,0,0
CCN1CCN(Cc2ccc(-c3cc4c(N[C@H](C)c5ccccc5)ncnc4[nH]3)cc2)CC1 (2.5 µM),1,3,0,2,2,2,1,0,4,2
COc1ccc2c(OCc3nnc4ccc(-c5ccccc5)nn34)ccnc2c1 (2 µM),0,0,0,0,0,0,0,0,0,0
Cn1cnc2c(F)c(Nc3ccc(Br)cc3Cl)c(C(=O)NOCCO)cc21 [Selumetinib (sulfate)] (10 µM),0,0,0,0,0,0,1,0,0,0
CCc1c(C(=O)NNC(=O)C(O)c2cc(F)cc(F)c2)ccc(O)c1C (stereo not given) (10 µM),0,0,0,0,0,0,0,0,0,0
CCN1CCC(n2cc(CNc3cc(Cl)c4ncc(C#N)c(Nc5ccc(F)c(Cl)c5)c4c3)nn2)CC1 [Cot inhibitor-2] (2.5 µM),0,0,0,0,0,0,0,0,0,0
Cc1ccc(CNc2ncnc3ccc(-c4ccc(CO)o4)cc23)o1 (10 µM),0,0,0,0,0,0,0,0,0,0
Cc1cc(O)c2c(c1)C(=O)c1cc(O)cc(O)c1C2=O [Emodin] (10 µM),0,0,0,0,0,0,0,0,0,0

# Looked up by compound from the list above (2):
SMILES,number of time points [1],number of time points [2],number of time points [3],number of time points [4],number of time points [5],number of time points [6],number of time points [7],number of time points [8],number of time points [9],number of time points [10]
C[C@@]1(c2ncncc2F)NC(=O)c2cc(-c3cn[nH]c3)ccc21 (10 µM),0,0,0,0,0,0,0,0,0,0
O=C(O)CCC(=O)Nc1ccc(Br)cn1 [Bikinin] (10 µM),0,0,0,0,0,0,0,0,0,0
